No constants are given. Whether binding was seen depends on the method and setting. Binding seen in cells or lysates may run through a third protein. Here binding means that the protein was enriched with, or labelled near, the bait; the list need not be complete. Sequences can lack the tags named with a protein.
Tests used:
Assay in all cases: affinity purification with mass spectrometry; GFP pulldown with GFP Tag Immunomagnetic Beads from lysates of HEK-293 Flp-In T-REx cells expressing EGFP, EGFP-MAB21L1 or mutant EGFP-MAB21L1 after 12 hrs of 1 μg/ml tetracycline; three biological replicates; MaxQuant
[1] = molecular target: T1, GFP-tagged MAB21L1 Arg51Gln (human) (UniProt Q13394)
T1 sequence: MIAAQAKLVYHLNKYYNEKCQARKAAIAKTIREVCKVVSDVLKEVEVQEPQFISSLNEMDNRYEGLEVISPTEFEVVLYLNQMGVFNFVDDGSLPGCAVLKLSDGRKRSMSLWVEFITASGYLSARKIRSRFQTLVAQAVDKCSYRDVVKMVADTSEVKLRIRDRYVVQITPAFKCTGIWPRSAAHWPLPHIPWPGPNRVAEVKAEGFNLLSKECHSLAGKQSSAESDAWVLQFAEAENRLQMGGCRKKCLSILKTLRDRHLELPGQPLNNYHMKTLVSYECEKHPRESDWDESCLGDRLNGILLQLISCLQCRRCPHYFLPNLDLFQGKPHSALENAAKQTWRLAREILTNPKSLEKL

[2] = molecular target: T2, GFP-tagged MAB21L1 Arg51Leu (human) (UniProt Q13394)
T2 sequence: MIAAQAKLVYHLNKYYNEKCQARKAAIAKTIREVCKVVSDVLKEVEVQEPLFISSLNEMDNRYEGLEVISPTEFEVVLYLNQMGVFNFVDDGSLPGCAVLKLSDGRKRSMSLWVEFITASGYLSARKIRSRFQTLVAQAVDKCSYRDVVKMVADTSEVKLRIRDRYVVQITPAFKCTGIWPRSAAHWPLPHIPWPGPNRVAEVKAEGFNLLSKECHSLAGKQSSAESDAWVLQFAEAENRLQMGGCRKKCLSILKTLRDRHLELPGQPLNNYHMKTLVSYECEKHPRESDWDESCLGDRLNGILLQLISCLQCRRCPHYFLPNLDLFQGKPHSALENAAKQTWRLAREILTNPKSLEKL

[3] = molecular target: T3, GFP-tagged wild-type MAB21L1 (human) (UniProt Q13394)
T3 sequence: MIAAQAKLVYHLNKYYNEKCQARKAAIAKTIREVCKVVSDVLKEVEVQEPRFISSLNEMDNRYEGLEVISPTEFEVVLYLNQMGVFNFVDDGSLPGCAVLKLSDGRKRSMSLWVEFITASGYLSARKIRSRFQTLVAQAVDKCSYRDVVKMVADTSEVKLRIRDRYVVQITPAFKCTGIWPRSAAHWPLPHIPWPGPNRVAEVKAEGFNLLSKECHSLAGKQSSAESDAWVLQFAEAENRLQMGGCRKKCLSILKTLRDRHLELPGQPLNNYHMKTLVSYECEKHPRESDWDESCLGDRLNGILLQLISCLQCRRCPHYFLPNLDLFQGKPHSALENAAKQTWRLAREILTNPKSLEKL

Measured: binding

B1: PFAS (protein, UniProt O15067 1-1338)
chain: MSPVLHFYVRPSGHEGAAPGHTRRKLQGKLPELQGVETELCYNVNWTAEALPSAEETKKLMWLFGCPLLLDDVARESWLLPGSNDLLLEVGPRLNFSTPTSTNIVSVCRATGLGPVDRVETTRRYRLSFAHPPSAEVEAIALATLHDRMTEQHFPHPIQSFSPESMPEPLNGPINILGEGRLALEKANQELGLALDSWDLDFYTKRFQELQRNPSTVEAFDLAQSNSEHSRHWFFKGQLHVDGQKLVHSLFESIMSTQESSNPNNVLKFCDNSSAIQGKEVRFLRPEDPTRPSRFQQQQGLRHVVFTAETHNFPTGVCPFSGATTGTGGRIRDVQCTGRGAHVVAGTAGYCFGNLHIPGYNLPWEDPSFQYPGNFARPLEVAIEASNGASDYGNKFGEPVLAGFARSLGLQLPDGQRREWIKPIMFSGGIGSMEADHISKEAPEPGMEVVKVGGPVYRIGVGGGAASSVQVQGDNTSDLDFGAVQRGDPEMEQKMNRVIRACVEAPKGNPICSLHDQGAGGNGNVLKELSDPAGAIIYTSRFQLGDPTLNALEIWGAEYQESNALLLRSPNRDFLTHVSARERCPACFVGTITGDRRIVLVDDRECPVRRNGQGDAPPTPLPTPVDLELEWVLGKMPRKEFFLQRKPPMLQPLALPPGLSVHQALERVLRLPAVASKRYLTNKVDRSVGGLVAQQQCVGPLQTPLADVAVVALSHEELIGAATALGEQPVKSLLDPKVAARLAVAEALTNLVFALVTDLRDVKCSGNWMWAAKLPGEGAALADACEAMVAVMAALGVAVDGGKDSLSMAARVGTETVRAPGSLVISAYAVCPDITATVTPDLKHPEGRGHLLYVALSPGQHRLGGTALAQCFSQLGEHPPDLDLPENLVRAFSITQGLLKDRLLCSGHDVSDGGLVTCLLEMAFAGNCGLQVDVPVPRVDVLSVLFAEEPGLVLEVQEPDLAQVLKRYRDAGLHCLELGHTGEAGPHAMVRVSVNGAVVLEEPVGELRALWEETSFQLDRLQAEPRCVAEEERGLRERMGPSYCLPPTFPKASVPREPGGPSPRVAILREEGSNGDREMADAFHLAGFEVWDVTMQDLCSGAIGLDTFRGVAFVGGFSYADVLGSAKGWAAAVTFHPRAGAELRRFRKRPDTFSLGVCNGCQLLALLGWVGGDPNEDAAEMGPDSQPARPGLLLRHNLSGRYESRWASVRVGPGPALMLRGMEGAVLPVWSAHGEGYVAFSSPELQAQIEARGLAPLHWADDDGNPTEQYPLNPNGSPGGVAGICSCDGRHLAVMPHPERAVRPWQWAWRPPPFDTLTTSPWLQLFINARNWTLEGSC
binds: [1] | [2] | [3]

B2: SMG5 (protein, UniProt Q9UPR3 1-1016)
chain: MSQGPPTGESSEPEAKVLHTKRLYRAVVEAVHRLDLILCNKTAYQEVFKPENISLRNKLRELCVKLMFLHPVDYGRKAEELLWRKVYYEVIQLIKTNKKHIHSRSTLECAYRTHLVAGIGFYQHLLLYIQSHYQLELQCCIDWTHVTDPLIGCKKPVSASGKEMDWAQMACHRCLVYLGDLSRYQNELAGVDTELLAERFYYQALSVAPQIGMPFNQLGTLAGSKYYNVEAMYCYLRCIQSEVSFEGAYGNLKRLYDKAAKMYHQLKKCETRKLSPGKKRCKDIKRLLVNFMYLQSLLQPKSSSVDSELTSLCQSVLEDFNLCLFYLPSSPNLSLASEDEEEYESGYAFLPDLLIFQMVIICLMCVHSLERAGSKQYSAAIAFTLALFSHLVNHVNIRLQAELEEGENPVPAFQSDGTDEPESKEPVEKEEEPDPEPPPVTPQVGEGRKSRKFSRLSCLRRRRHPPKVGDDSDLSEGFESDSSHDSARASEGSDSGSDKSLEGGGTAFDAETDSEMNSQESRSDLEDMEEEEGTRSPTLEPPRGRSEAPDSLNGPLGPSEASIASNLQAMSTQMFQTKRCFRLAPTFSNLLLQPTTNPHTSASHRPCVNGDVDKPSEPASEEGSESEGSESSGRSCRNERSIQEKLQVLMAEGLLPAVKVFLDWLRTNPDLIIVCAQSSQSLWNRLSVLLNLLPAAGELQESGLALCPEVQDLLEGCELPDLPSSLLLPEDMALRNLPPLRAAHRRFNFDTDRPLLSTLEESVVRICCIRSFGHFIARLQGSILQFNPEVGIFVSIAQSEQESLLQQAQAQFRMAQEEARRNRLMRDMAQLRLQLEVSQLEGSLQQPKAQSAMSPYLVPDTQALCHHLPVIRQLATSGRFIVIIPRTVIDGLDLLKKEHPGARDGIRYLEAEFKKGNRYIRCQKEVGKSFERHKLKRQDADAWTLYKILDSCKQLTLAQGAGEEDPSGMVTIITGLPLDNPSVLSGPMQAALQAAAHASVDIKNVLDFYKQWKEIG
binds: [1] | [2] | [3]

B3: SALL2 (protein, UniProt Q9Y467 1-1007)
chain: MSRRKQRKPQQLISDCEGPSASENGDASEEDHPQVCAKCCAQFTDPTEFLAHQNACSTDPPVMVIIGGQENPNNSSASSEPRPEGHNNPQVMDTEHSNPPDSGSSVPTDPTWGPERRGEESSGHFLVAATGTAAGGGGGLILASPKLGATPLPPESTPAPPPPPPPPPPPGVGSGHLNIPLILEELRVLQQRQIHQMQMTEQICRQVLLLGSLGQTVGAPASPSELPGTGTASSTKPLLPLFSPIKPVQTSKTLASSSSSSSSSSGAETPKQAFFHLYHPLGSQHPFSAGGVGRSHKPTPAPSPALPGSTDQLIASPHLAFPSTTGLLAAQCLGAARGLEATASPGLLKPKNGSGELSYGEVMGPLEKPGGRHKCRFCAKVFGSDSALQIHLRSHTGERPYKCNVCGNRFTTRGNLKVHFHRHREKYPHVQMNPHPVPEHLDYVITSSGLPYGMSVPPEKAEEEAATPGGGVERKPLVASTTALSATESLTLLSTSAGTATAPGLPAFNKFVLMKAVEPKNKADENTPPGSEGSAISGVAESSTATRMQLSKLVTSLPSWALLTNHFKSTGSFPFPYVLEPLGASPSETSKLQQLVEKIDRQGAVAVTSAASGAPTTSAPAPSSSASSGPNQCVICLRVLSCPRALRLHYGQHGGERPFKCKVCGRAFSTRGNLRAHFVGHKASPAARAQNSCPICQKKFTNAVTLQQHVRMHLGGQIPNGGTALPEGGGAAQENGSEQSTVSGARSFPQQQSQQPSPEEELSEEEEEEDEEEEEDVTDEDSLAGRGSESGGEKAISVRGDSEEASGAEEEVGTVAAAATAGKEMDSNEKTTQQSSLPPPPPPDSLDQPQPMEQGSSGVLGGKEEGGKPERSSSPASALTPEGEATSVTLVEELSLQEAMRKEPGESSSRKACEVCGQAFPSQAALEEHQKTHPKEGPLFTCVFCRQGFLERATLKKHMLLAHHQVQPFAPHGPQNIAALSLVPGCSPSITSTGLSPFPRKDDPTIP
binds: [1] | [2] | [3]

B4: PHKG2 (protein, UniProt P15735 1-406)
chain: MTLDVGPEDELPDWAAAKEFYQKYDPKDVIGRGVSSVVRRCVHRATGHEFAVKIMEVTAERLSPEQLEEVREATRRETHILRQVAGHPHIITLIDSYESSSFMFLVFDLMRKGELFDYLTEKVALSEKETRSIMRSLLEAVSFLHANNIVHRDLKPENILLDDNMQIRLSDFGFSCHLEPGEKLRELCGTPGYLAPEILKCSMDETHPGYGKEVDLWACGVILFTLLAGSPPFWHRRQILMLRMIMEGQYQFSSPEWDDRSSTVKDLISRLLQVDPEARLTAEQALQHPFFERCEGSQPWNLTPRQRFRVAVWTVLAAGRVALSTHRVRPLTKNALLRDPYALRSVRHLIDNCAFRLYGHWVKKGEQQNRAALFQHRPPGPFPIMGPEEEGDSAAITEDEAVLVLG
binds: [1] | [2] | [3]

B5: CEP55 (protein, UniProt Q53EZ4 1-464)
chain: MSSRSTKDLIKSKWGSKPSNSKSETTLEKLKGEIAHLKTSVDEITSGKGKLTDKERHRLLEKIRVLEAEKEKNAYQLTEKDKEIQRLRDQLKARYSTTTLLEQLEETTREGERREQVLKALSEEKDVLKQQLSAATSRIAELESKTNTLRLSQTVAPNCFNSSINNIHEMEIQLKDALEKNQQWLVYDQQREVYVKGLLAKIFELEKKTETAAHSLPQQTKKPESEGYLQEEKQKCYNDLLASAKKDLEVERQTITQLSFELSEFRRKYEETQKEVHNLNQLLYSQRRADVQHLEDDRHKTEKIQKLREENDIARGKLEEEKKRSEELLSQVQFLYTSLLKQQEEQTRVALLEQQMQACTLDFENEKLDRQHVQHQLHVILKELRKARNQITQLESLKQLHEFAITEPLVTFQGETENREKVAASPKSPTAALNESLVECPKCNIQYPATEHRDLLVHVEYCSK
binds: [1] | [2] | [3]
